Values of other authors in patent publication US20070037861A1, “Enhanced method of treatment of growth disorders” (PFIZER HEALTH AB, priority 2003, published 2007).
At least one structure is not confirmed: it was looked up by name or label, or the drawing left a doubt.

Details: cited from earlier work

For `CC(C)(Oc1ccc(CCNC(=O)c2ccc(Cl)cc2)cc1)C(=O)O` [Bezafibrate], the “fat deposits and insulin sensitivity” value (in vivo) is listed as “reduce fat deposits and improve insulin sensitivity”.

For `CC(C)OC(=O)C(C)(C)Oc1ccc(C(=O)c2ccc(Cl)cc2)cc1` [Fenofibrate], the insulin resistance (animal model, without adverse effects on body weight and adipose tissue mass) is given as “reduce insulin resistance”.
